Where “and” joins values, the source holds several entries; their conditions need not be identical. Equal values may be shown once. This list was built around the results that the source calls inconclusive (neither active nor inactive); the mix of calls is not that of the screen. Potencies beside an inconclusive call are fits to weak or partial responses and may not hold up. Some compounds were tested as several samples or in several runs, with calls that do not always agree. Calls of active or inactive are those of the source. The calls were made as follows: active = hit-call score of the fitted dose curve at least 0.9, where 1 is the maximum; inconclusive = response in the unintended direction; inactive = score below 0.9.
Assays:
[1] = molecular target: Retinoic acid receptor RXR-alpha (Homo sapiens) (UniProt P19793); experiment: OT_NURR1_NURR1RXRa_0480: Odyssey Thera (OT) 8-hour HEK293T Protein Complementation Assay for Nurr1/retinoid X receptor (RXR) (AID 2283385)
In short: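 HEK293T cells expressing Nurr1 and RXRα fused to reporter fragments were dosed with compound for 8 hours. Complex formation was read as fluorescence intensity and analysed as gain of signal against DMSO as baseline.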

Amino acid sequences for entries named in this document (tags omitted). A change or cut given only in a name is not applied to a line headed by its entry.
UniProt P19793: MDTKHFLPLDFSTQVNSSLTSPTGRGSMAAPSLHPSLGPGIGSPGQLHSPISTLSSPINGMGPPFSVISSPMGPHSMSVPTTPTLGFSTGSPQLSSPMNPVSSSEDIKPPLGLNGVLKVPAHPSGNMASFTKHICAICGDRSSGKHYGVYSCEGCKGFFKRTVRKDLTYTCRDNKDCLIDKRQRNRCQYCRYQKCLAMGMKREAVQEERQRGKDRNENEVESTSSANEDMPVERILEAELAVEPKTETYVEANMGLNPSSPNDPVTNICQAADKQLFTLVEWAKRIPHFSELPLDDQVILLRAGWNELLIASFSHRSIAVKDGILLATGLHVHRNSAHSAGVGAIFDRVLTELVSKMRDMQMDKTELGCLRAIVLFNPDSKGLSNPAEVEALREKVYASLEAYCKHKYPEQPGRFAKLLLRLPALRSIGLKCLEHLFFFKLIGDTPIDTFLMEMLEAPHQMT
UniProt P04637, whole entry, looked up: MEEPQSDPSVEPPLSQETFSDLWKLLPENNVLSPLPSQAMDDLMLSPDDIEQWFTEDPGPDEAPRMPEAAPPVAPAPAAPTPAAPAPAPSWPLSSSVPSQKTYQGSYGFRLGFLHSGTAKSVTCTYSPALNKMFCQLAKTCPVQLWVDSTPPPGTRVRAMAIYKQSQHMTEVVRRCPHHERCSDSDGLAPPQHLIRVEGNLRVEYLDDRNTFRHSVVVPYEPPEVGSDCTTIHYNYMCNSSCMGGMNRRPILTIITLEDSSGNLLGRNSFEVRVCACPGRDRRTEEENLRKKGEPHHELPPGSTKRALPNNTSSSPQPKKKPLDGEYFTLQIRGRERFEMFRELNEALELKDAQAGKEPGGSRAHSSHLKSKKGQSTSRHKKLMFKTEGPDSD
UniProt P37231: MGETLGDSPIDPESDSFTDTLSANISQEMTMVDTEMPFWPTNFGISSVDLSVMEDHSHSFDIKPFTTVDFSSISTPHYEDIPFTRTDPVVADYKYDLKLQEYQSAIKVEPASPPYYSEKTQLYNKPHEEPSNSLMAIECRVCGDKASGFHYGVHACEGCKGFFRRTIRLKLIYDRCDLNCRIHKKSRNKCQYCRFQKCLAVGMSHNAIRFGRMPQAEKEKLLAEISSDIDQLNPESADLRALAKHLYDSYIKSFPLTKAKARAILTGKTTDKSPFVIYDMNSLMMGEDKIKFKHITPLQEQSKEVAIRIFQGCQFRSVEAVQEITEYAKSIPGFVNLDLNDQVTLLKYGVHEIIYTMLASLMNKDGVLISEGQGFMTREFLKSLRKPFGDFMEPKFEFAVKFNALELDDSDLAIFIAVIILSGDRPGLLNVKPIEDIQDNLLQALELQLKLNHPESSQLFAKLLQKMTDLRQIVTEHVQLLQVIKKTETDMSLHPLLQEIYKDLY

[2] = molecular target: Retinoic acid receptor RXR-alpha (Homo sapiens) (UniProt P19793); experiment: OT_NURR1_NURR1RXRa_1440: Odyssey Thera (OT) 24-hour HEK293T Protein Complementation Assay for Nurr1/retinoid X receptor (RXR) (AID 2283386)
In short: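 HEK293T cells were dosed with compound and read 24 h later by fluorescence intensity in a protein-fragment complementation format, where Nurr1–RXRα interaction reconstitutes a split reporter. Activity was fitted as gain of signal relative to DMSO baseline.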

[3] = ATG_XTT_Cytotoxicity: Cytotoxicity Assessment in the Attagene TRANS-FACTORIAL HepG2 Assay (AID 2283584);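 as to AC50: cells exposed to compound for 24 h before reading; active means loss of viability signal versus DMSO baseline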
In short: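 Viability endpoint from XTT after 24 h chemical exposure of reporter-transfected human HepG2 liver cells; signal loss fitted relative to DMSO negative control.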

[4] = TOX21_p53_BLA_p2_viability: Viability Assessment in the Tox21 HCT-116 p53 Agonism Beta-lactamase Assay, Phase 2 (AID 2283591);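 also: compound exposure lasted 16 h at 37 °C; actives lower the ATP signal meaning cytotoxicity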
In short: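 HCT116 p53-bla cells, 4000/well, dosed after 5 h plating (217-fold dilution of DMSO stocks) and incubated 16 h at 37C. Viability taken as cellular ATP by CellTiter-Glo luminescence after 30 min RT; signal loss marks cytotoxicity.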

[5] = molecular target: Cellular tumor antigen p53 (Homo sapiens) (UniProt P04637); experiment: TOX21_p53_BLA_p2_ratio: Tox21 HCT-116 p53 Agonism Beta-lactamase Assay, Ratio, Phase 2 (AID 2283592)
In short: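 Gain-of-signal p53 agonism was scored from the beta-lactamase FRET ratio (460/530 nm, 405 nm excitation) in HCT116 cells treated 16 h at 37C, 5% CO2, with DMSO serving as negative control and baseline.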

[6] = TOX21_p53_BLA_p3_viability: Viability Assessment in the Tox21 HCT-116 p53 Agonism Beta-lactamase Assay, Phase 3 (AID 2283593);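 also: cells exposed to compound for 16 h before reading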
In short: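 HCT116 cells, 4000/well, dosed 5 h after plating by pin transfer (217-fold dilution from DMSO stock) and incubated 16 h at 37C, 5% CO2. Viability read as ATP luminescence with CellTiter-Glo after 30 min at room temperature.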

[7] = molecular target: Cellular tumor antigen p53 (Homo sapiens) (UniProt P04637); experiment: TOX21_p53_BLA_p3_ratio: Tox21 HCT-116 p53 Agonism Beta-lactamase Assay, Ratio, Phase 3 (AID 2283596)
In short: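 HCT116 p53-bla cells (4000/well) given compound in DMSO (217-fold dilution) after 5 h, incubated 16 h at 37C. CCF4-AM substrate 2 h at room temperature; 460/530 nm emission ratio, gain fitted against DMSO.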

[8] = molecular target: Peroxisome proliferator-activated receptor gamma (Homo sapiens) (UniProt P37231); experiment: OT_PPARg_PPARgSRC1_0480: Odyssey Thera (OT) 8-hour Protein-Complementation Assay for Peroxisome Proliferator-activated Receptor Gamma / SRC-1 Co-activator (AID 2283387);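 also: nuclear to cytoplasmic split Venus YFP fluorescence ratio reporting PPARg SRC-1 interaction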
In short: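 HEK293T transiently transfected with PPARg and SRC-1 fused to Venus YFP fragments, compounds 8 h at 37C. Fixed, Draq5-stained cells imaged; nuclear/cytoplasmic 488 nm fluorescence ratio over at least 350 cells per image; gain fitted versus DMSO.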

Question: Which outcome [1] does the source give for `O=C1OC2(c3ccccc31)c1cc(I)c(O)c(I)c1Oc1c2cc(I)c(O)c1I` here?
Answer: inactive

Question: And the AC50 [2]?
Answer: inconclusive: 51.3 µM

Question: And the outcome [3]?
Answer: inactive

Question: What about the AC50 [4] of the same molecule?
Answer: inconclusive: 1.44 µM and inconclusive: 7.36 µM and inconclusive: 1.34 µM

Question: And the outcome [4]?
Answer: inactive

Question: What about the AC50 [5] of the same molecule?
Answer: active: 78.6 µM

Question: And the outcome [5]?
Answer: inactive

Question: And the AC50 [6]?
Answer: inconclusive: 27.6 µM and inconclusive: 23 µM

Question: And the AC50 [7]?
Answer: active: 87.3 µM and inconclusive: 28.8 µM

Question: For `CC(O)CN(CCN(CC(C)O)CC(C)O)CC(C)O` (stereo not drawn), which outcome [1] is on record?
Answer: inactive

Question: What about the AC50 [2] of the same molecule?
Answer: inconclusive: 50 µM

Question: What about the AC50 [4] of the same molecule?
Answer: inconclusive: 46.7 µM and inconclusive: 23 µM

Question: What about the outcome [4] of the same molecule?
Answer: inactive

Question: And the AC50 [5]?
Answer: inconclusive: 46.1 µM

Question: And the AC50 [6]?
Answer: inconclusive: 46.1 µM and inconclusive: 9.27 µM and inconclusive: 23 µM

Question: What about the outcome [7] of the same molecule?
Answer: inactive

Question: For `CC(C)(C)c1ccccc1`, which AC50 [1] is on record?
Answer: inconclusive: 50 µM

Question: And the outcome [2]?
Answer: inactive

Question: What about the AC50 [4] of the same molecule?
Answer: inconclusive: 46.1 µM

Question: Which AC50 [1] does the source give for `OCC(CO)(CBr)CBr` here?
Answer: inconclusive: 50 µM

Question: What about the AC50 [2] of the same molecule?
Answer: inconclusive: 50 µM

Question: And the AC50 [3]?
Answer: inconclusive: 0.349 µM

Question: What does the source list for `C=C[Si](OCCOC)(OCCOC)OCCOC`?
Answer: AC50 [1]: inconclusive: 0.551 µM; AC50 [2]: inconclusive: 50 µM; AC50 [3]: inconclusive: 100 µM; AC50 [4]: inconclusive: 46.3 µM; outcome [4]: inactive; AC50 [6]: inconclusive: 46.3 µM; outcome [7]: inactive

Question: What does the source list for `CCC(C)c1ccccc1O` (stereo not drawn)?
Answer: AC50 [1]: inconclusive: 4.83 µM; AC50 [2]: inconclusive: 21.8 µM; AC50 [3]: inconclusive: 100 µM

Question: Which results are given for `NC(=O)c1cccnc1`?
Answer: outcome [1]: inactive; AC50 [2]: active: 82.4 µM; AC50 [4]: inconclusive: 15.6 µM; AC50 [5]: inconclusive: 48.4 µM; AC50 [6]: inconclusive: 48.4 µM

Question: Which AC50 [1] does the source give for `CCCCCCCCCCC` here?
Answer: inconclusive: 50 µM

Question: What about the outcome [2] of the same molecule?
Answer: inactive

Question: What about the AC50 [8] of the same molecule?
Answer: inconclusive: 50 µM

Question: And the AC50 [6]?
Answer: inconclusive: 0.519 µM

Question: For `CC(C)=CCCC(C)=CCCC(C)=CCO`, which outcome [1] is on record?
Answer: inactive

Question: What about the AC50 [2] of the same molecule?
Answer: inconclusive: 50 µM

Question: What about the outcome [5] of the same molecule?
Answer: inactive

Question: What about the outcome [6] of the same molecule?
Answer: inactive

Question: And the AC50 [7]?
Answer: inconclusive: 46.1 µM

Question: What does the source list for `CO[C@H]1/C=C/O[C@@]2(C)Oc3c(C)c(O)c4c(O)c(c(/C=N/N5CCN(C)CC5)c(O)c4c3C2=O)NC(=O)/C(C)=C\C=C\[C@H](C)[C@H](O)[C@@H](C)[C@@H](O)[C@@H](C)[C@H](OC(C)=O)[C@@H]1C`?
Answer: outcome [1]: inactive; outcome [2]: inactive; AC50 [4]: inconclusive: 6.18 µM; AC50 [5]: inconclusive: 23 µM; outcome [6]: inactive; AC50 [7]: inconclusive: 47.3 µM and inconclusive: 23 µM; outcome [7]: inactive

Question: Which AC50 [1] does the source give for `c1cc(-c2ccncc2)ccn1` here?
Answer: inconclusive: 16.9 µM and inconclusive: 50 µM

Question: What about the AC50 [2] of the same molecule?
Answer: inconclusive: 22.6 µM

Question: And the AC50 [5]?
Answer: inconclusive: 46.1 µM

Question: What about the outcome [6] of the same molecule?
Answer: inactive

Question: Which AC50 [1] does the source give for `C[Si](C)(C)N[Si](C)(C)C` here?
Answer: inconclusive: 50 µM

Question: And the AC50 [2]?
Answer: inconclusive: 0.39 µM

Question: And the outcome [5]?
Answer: inactive

Question: What about the AC50 [6] of the same molecule?
Answer: inconclusive: 0.0339 µM

Question: For `CN1C(=O)CC[C@H]1c1cccnc1`, which AC50 [1] is on record?
Answer: inconclusive: 4.61 µM and inconclusive: 48.5 µM

Question: What about the AC50 [2] of the same molecule?
Answer: inconclusive: 50 µM

Question: And the outcome [4]?
Answer: inactive

Question: And the outcome [6]?
Answer: inactive

Question: And the AC50 [7]?
Answer: inconclusive: 23 µM

Question: Which outcome [1] does the source give for `CCc1occc(=O)c1O` here?
Answer: inactive

Question: What about the outcome [2] of the same molecule?
Answer: inactive

Question: And the outcome [4]?
Answer: inactive

Question: What about the AC50 [5] of the same molecule?
Answer: inconclusive: 46.1 µM

Question: What about the AC50 [6] of the same molecule?
Answer: inconclusive: 0.00291 µM

Question: And the AC50 [7]?
Answer: inconclusive: 46.1 µM

Question: Which results are given for `CCCOc1sc(C(=O)N2CCC(c3cc(CN)ccc3F)CC2)c(C)c1Br`?
Answer: AC50 [1]: inconclusive: 22.4 µM; AC50 [2]: inconclusive: 22.4 µM; AC50 [4]: active: 43.2 µM; AC50 [5]: active: 80.1 µM; AC50 [6]: active: 80 µM; AC50 [7]: active: 80.4 µM

Question: With `COc1ccc(N=Nc2cc(C)c(N=Nc3ccc(S(=O)(=O)O)cc3)cc2OC)cc1` as the molecule, how does the AC50 [1] read?
Answer: inconclusive: 1.09 µM

Question: And the AC50 [2]?
Answer: inconclusive: 20.6 µM

Question: What about the AC50 [5] of the same molecule?
Answer: inconclusive: 46.1 µM

Question: And the outcome [7]?
Answer: inactive

Question: Which results are given for `CC(=O)OCCC(C)C`?
Answer: AC50 [1]: inconclusive: 3.89 µM; AC50 [2]: inconclusive: 50 µM; AC50 [4]: inconclusive: 46.1 µM; AC50 [6]: inconclusive: 46.1 µM; AC50 [7]: inconclusive: 86.2 µM; outcome [7]: inactive

Question: For `CCCCCCCCCC[N+](C)(C)[O-]`, which AC50 [1] is on record?
Answer: inconclusive: 50 µM

Question: What about the AC50 [2] of the same molecule?
Answer: inconclusive: 4.48 µM

Question: What about the AC50 [4] of the same molecule?
Answer: inconclusive: 46.1 µM

Question: And the outcome [6]?
Answer: inactive

Question: For `CC(C)(C)c1csc(-c2cc3cc(OCc4ccccc4CC(=O)O)ccc3o2)n1`, which AC50 [1] is on record?
Answer: active: 2.97 µM

Question: What about the AC50 [2] of the same molecule?
Answer: active: 29.1 µM

Question: What about the AC50 [4] of the same molecule?
Answer: active: 25.5 µM

Question: What about the AC50 [5] of the same molecule?
Answer: active: 36.2 µM

Question: What about the AC50 [6] of the same molecule?
Answer: active: 46.1 µM

Question: And the AC50 [7]?
Answer: active: 27.9 µM

From PubChem BioAssay (EPA / NIEHS)
